Measured values published in PubChem BioAssay AID504444 (National Center for Advancing Translational Sciences (NCATS), 2011).
Among all 360,000 compounds or so, about 7,500 (2.1%) were called active. Inconclusive means that the source gave no clear call. Such entries were picked first, then a sample of the others. Calls come from the whole dose curve; as a rule, active = well fitted inhibition curve with a large enough effect; inconclusive = small, poorly fitted or top-dose-only effect, or effect the other way; inactive = flat fitted curve, though single readings scatter. A potency beside an inconclusive call is a rough fit, not a confirmed value.

Assay: Nrf2 qHTS screen for inhibitors; note: nearly all actives have a fitted effect of over 60% in size
Details: A549 ARE-Fluc reporter, luciferase luminescence, 18-24 h; activity change, negative = inhibition: at 46 µM (top of the series)
Procedure, shortened: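 Nrf2 activity is the BugLite luminescence, read 15 min after reagent at room temperature, following CellTiter-Fluor cytotoxicity readout (30 min, 37C). Compound titrations were applied for 18-24 h to 5000 A549 ARE_Fluc cells/well in 5% FBS OPTI-MEM.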
% is set by controls: 0 for no effect and ±100 for the full control effect; potency is the fitted concentration of half-maximal effect.

SMILES | activity change, negative = inhibition | Potency
CCOC(=O)c1ccccc1NC(=O)CSc1nc(N)cc(=O)[nH]1 | inactive: 6.43% | –
COc1ccc(CNC(=O)C2CCN(c3nc(-c4ccccc4)nc4c3CCC4)CC2)cc1 | – | inconclusive: 20.6 µM [falling, single point]
Cn1/c(=N\NC(=O)c2ccccc2Cl)sc2ccccc21 | – | inconclusive: 1.46 µM [activator, full curve, poor fit]
Nc1cnn(C2OC(CO)C(O)C2O)c(=O)n1 (stereo not given) | – | inconclusive: 0.461 µM [activator, full curve]
Cc1ccc(NC(=O)c2ncn(-c3ccccc3)n2)cc1Cl | – | inconclusive: 16.4 µM [activator, partial curve]
COc1ccc(NC(=O)c2oc3ccccc3c2NC(=O)c2cc(=O)c3c(C)cc(C)cc3o2)cc1 | – | inconclusive: 29.1 µM [falling, single point]
O=C(Nc1ccccc1)Nc1ccc(Br)c(Cl)c1 | – | inconclusive: 32.6 µM [falling, single point]
COCc1cc(C)nc(SCc2ccc(Cl)cc2)c1C#N | – | inconclusive: 16.4 µM [falling, partial curve]
CC(C)CN=Cc1c(O)c([N+](=O)[O-])cc2oc3c(c12)CCCC3 | – | inconclusive: 32.6 µM [falling, single point]
CC(=O)Nc1ccc(-c2csc(Nc3ccc(Cl)cn3)n2)cc1 | – | active: 14.6 µM
Cc1ccc(-c2noc(CSc3ccccc3)n2)cc1 | – | inconclusive: 9.2 µM [activator, partial curve]
COc1ccc(Cc2noc(-c3ccc([N+](=O)[O-])cc3)n2)cc1OC | – | inconclusive: 23.1 µM [falling, single point]
Cc1ccc(-c2nc(CSCC(=O)Nc3cc(C)on3)c(C)o2)cc1 | – | inconclusive: 32.6 µM [falling, single point]
COc1ccc(C2CC(c3ccc4ccccc4c3)=NN2C(=O)CNC2CCCCC2)cc1 (stereo not given) | – | inconclusive: 20.6 µM [activator, partial curve]
Cc1onc(-c2c(Cl)cccc2Cl)c1-c1nnc(-c2ccc(Cl)cc2)o1 | – | inconclusive: 29.1 µM [falling, single point]
Cc1ccc(NC(=O)CS(=O)(=O)c2nc(-c3ccc(C)cc3)cn2-c2ccc(C)cc2)cc1 | – | inconclusive: 3.66 µM [activator, partial curve, poor fit]
Cc1ccc(OCc2nc(-c3cccnc3)no2)cc1C | – | inconclusive: 2.91 µM [activator, full curve]
O=S(=O)(c1ccccc1)N1CCN(c2nc(-c3cccs3)nc3ccccc23)CC1 | – | inconclusive: 3.26 µM [falling, partial curve, poor fit]
CC1CCC/C(=C(\C#N)c2nc(-c3cc4ccccc4oc3=O)cs2)C1 (stereo not given) | – | inconclusive: 10.3 µM [activator, partial curve]
O=C(Nc1cccc([N+](=O)[O-])c1)c1ccc2ccccc2c1O | – | inconclusive: 4.11 µM [falling, single point]
COc1ccc(C(=O)OCC(=O)c2ccc[nH]2)c(OC)c1 | – | inconclusive: 8.2 µM [activator, partial curve, poor fit]
CCCCC(CC)CNC(=O)c1[nH]c(C)c(C(C)=O)c1C (stereo not given) | – | inconclusive: 20.6 µM [falling, single point]

SMILES | activity change, negative = inhibition | Potency
CCCc1cc(=O)oc2cc(OCc3ccc(OC)cc3)c(Cl)cc12 | – | inconclusive: 2.59 µM [falling, full curve, poor fit]
Cc1ccc(OCC(=O)Nc2ccccc2F)cc1 | – | inconclusive: 4.61 µM [activator, partial curve]
COc1ccc(-n2nc([N+](=O)[O-])c(=NCCC3=CCCCC3)n2O)cc1 | – | inconclusive: 23.1 µM [activator, partial curve, poor fit]
O=C(Nc1cc(-c2nc3cc(Cl)ccc3o2)ccc1Cl)c1cccs1 | – | inconclusive: 6.51 µM [activator, full curve]
Cc1oc(-c2ccccc2F)nc1CS(=O)(=O)CC(=O)NC1CCCC1 | inactive: -7.23% | –
COc1ccc(COC(=O)c2[nH]c3c(c2C)C(=O)CC(c2ccc(OC)c(OC)c2)C3)cc1 (stereo not given) | – | active: 6.51 µM
Cc1nn(C)c(Cl)c1S(=O)(=O)N[C@@H](c1ccccc1)[C@]1(C)C[C@H]1[C@@H](C)C(=O)Nc1ccc2ccccc2c1 | – | inconclusive: 29.1 µM [falling, single point]
Cc1cc(NC(=O)c2ccccc2)no1 | – | inconclusive: 1.46 µM [activator, full curve, poor fit]
Cc1cccc(N2CCN(C(=O)CCC(=O)N3CC(C)Oc4ccccc43)CC2)c1C (stereo not given) | – | active: 18.4 µM
Nc1nc(-c2cccs2)cs1 | – | inconclusive: 5.8 µM [activator, full curve]
CCCC(=O)NC(c1ccccc1OC)c1ccc2cccnc2c1O (stereo not given) | – | active: 7.31 µM
O=c1nc(N/N=C/c2ccccn2)cn[nH]1 | – | inconclusive: 4.11 µM [falling, partial curve, poor fit]
Cc1cc(C)cc(OCC(=O)OCC(=O)N(C)CC(=O)Nc2ccc(F)cc2)c1 | inactive: -0.943% | –
CCOC(=O)C1C(c2ccccc2)NC(=S)NC1(C)O (stereo not given) | – | inconclusive: 25.9 µM [falling, single point]
Cc1cc(OCC(=O)N2CCc3ccccc3C2)c2c(-c3ccccc3)cc(=O)oc2c1 | – | active: 16.4 µM
O=C(CCCN1C(=O)c2ccccc2C1=O)Nc1cccc(S(=O)(=O)NC2=NCCC2)c1 | – | inconclusive: 16.4 µM [activator, partial curve, poor fit]
CC(C)c1nnc(NC(=O)CSc2nnc(NC(=O)c3c(F)cccc3F)s2)s1 | – | inconclusive: 16.4 µM [activator, partial curve]
CCOC(=O)N/N=C/C(Cl)=C/c1ccccc1 | – | inconclusive: 23.1 µM [activator, partial curve, poor fit]
CC(C)NC(=O)C(c1ccc(F)cc1)N(C(=O)CCC(=O)Nc1ccccn1)c1cccc(F)c1 (stereo not given) | – | inconclusive: 20.6 µM [falling, single point]
Nc1nc(NC(=O)c2ccco2)nn1-c1ccccc1 | – | inconclusive: 29.1 µM [activator, single point]
Cc1nc(-c2ccccc2)sc1-c1nc(-c2cccnc2)ncc1S(=O)(=O)c1ccccc1 | – | active: 23.1 µM
Cc1ccc(-n2ncc(C(=O)NC3CCCC3)c2C2CCN(C(=O)OC(C)(C)C)CC2)c(C)c1 | – | inconclusive: 29.1 µM [falling, single point]

SMILES | activity change, negative = inhibition | Potency
COc1ccc(C(=O)N(Cc2ccco2)Cc2cccs2)cc1 | inactive: -16.6% | –
C(=C\c1ccccn1)/c1ccncc1 | inactive: 10.7% | –
Cc1ccc2c(C)nc(Nc3nc(CSc4nc5ccccc5s4)cc(=O)[nH]3)nc2c1 | inactive: 8.1% | –
Cc1ccc(C)c(NS(=O)(=O)c2ccc3c4c(cccc24)C(=O)N3)c1 | – | active: 18.4 µM
CC1Cc2ccccc2N1S(=O)(=O)c1cccc(C(=O)NCc2ccncc2)c1 (stereo not given) | – | inconclusive: 18.4 µM [falling, single point]
Cc1cccc(C)c1OCc1cc(C(=O)N2CCN(c3ccccc3)CC2C)no1 (stereo not given) | – | inconclusive: 20.6 µM [falling, single point]
CCOc1cc(C2c3c(-c4ccccc4)n[nH]c3C(=O)N2c2ccc(C(=O)O)cc2)ccc1O (stereo not given) | – | inconclusive: 0.116 µM [falling, partial curve, poor fit]
CCOc1cccc2sc(Nc3nc4ccc(NC(C)=O)cc4s3)nc12 | – | inconclusive: 20.6 µM [falling, partial curve, poor fit]
O=C(Nn1cnnc1)C1CCCN1S(=O)(=O)c1ccc(F)cc1 (stereo not given) | inactive: 4.42% | –
CCn1nnc(-c2ccc(N)cc2)n1 | – | inconclusive: 18.4 µM [activator, partial curve]
CCOc1cc(/C=C2/C(=O)ON=C2C)ccc1OCc1ccccc1F | – | active: 4.11 µM
CC1=CC(C)(C)NC(=S)N1c1ccc(C)cc1 | – | inconclusive: 29.1 µM [falling, single point]
Cc1ccc(NC(=O)C(=O)NCCOc2ccccc2Cl)cc1 | – | inconclusive: 29.1 µM [falling, single point]
CCc1ccc(NC(=O)COc2ccc(/C=C(/C#N)c3nc4ccccc4[nH]3)cc2OC)cc1 | – | inconclusive: 6.51 µM [falling, single point]
Cc1cccc(NC(=O)C2CCN(S(=O)(=O)c3c(C)c(C)cc(C)c3C)CC2)n1 | – | inconclusive: 29.1 µM [falling, single point]
Cc1c(NS(=O)(=O)c2cccc(C(=O)O)c2)c(=O)n(-c2ccccc2)n1C | – | inconclusive: 16.4 µM [falling, single point]
O=C(CSc1nnc(CNC(=O)c2c(F)cccc2Cl)o1)Nc1ccccc1F | – | inconclusive: 7.31 µM [activator, partial curve]
Cc1ccc(C(=O)NC(=S)NCC2CCCO2)cc1 (stereo not given) | – | inconclusive: 10.3 µM [activator, partial curve]
O=C(CN1C(=O)NC(Cc2c[nH]c3ccccc23)C1=O)Nc1cccc(S(=O)(=O)N2CCCCCC2)c1 (stereo not given) | – | inconclusive: 18.4 µM [falling, single point]
Cc1nc(NC(=O)c2ccccc2)nc2cc3c(cc12)OCO3 | – | inconclusive: 18.4 µM [activator, single point]
O=C(Nc1ccc(S(=O)(=O)N2CCCCC2)cc1)C1CCN(C(=O)c2ccco2)CC1 | – | inconclusive: 4.11 µM [falling, full curve]

As a short view, part of the list above:
SMILES | activity change, negative = inhibition | Potency
Cc1ccc(-c2nc(CSCC(=O)Nc3cc(C)on3)c(C)o2)cc1 | – | inconclusive: 32.6 µM [falling, single point]
COc1ccc(C2CC(c3ccc4ccccc4c3)=NN2C(=O)CNC2CCCCC2)cc1 (stereo not given) | – | inconclusive: 20.6 µM [activator, partial curve]
Cc1onc(-c2c(Cl)cccc2Cl)c1-c1nnc(-c2ccc(Cl)cc2)o1 | – | inconclusive: 29.1 µM [falling, single point]
